At least one structure is not confirmed: it was looked up by name or label, or the drawing left a doubt.
Columns and labels:
[1] = tested on: acetylcholinesterase activity (AchE); assay: in vivo anticholinesterase activity (blood and brain, Ellman colorimetric method); parameters: species or system Wistar male rats; conditions: rats, oral, 1.5 to 4 mg/kg; sacrificed after 20, 60 and 120 minutes
Description: The derivatives, under question and physostigmine suspended in 2% carboxymethylcellulose, were orally administered to groups of Wistar male rats (average weight about 250 g).
On the base of the obtained results in preliminary trials, the doses utilized for the comparison were comprised beween 0.2 and 0.4 mg/kg for physostigmine and between 1.5 and 4 mg/kg for the eseroline derivatives under question.
The groups of treated rats were sacrificed after 20, 60, and 120 minutes and the blood and the brain of each animal were immediately cooled to 0°C and maintained at this temperature during the successive treatments.
The acetylcholinesterase activity (AchE) was determined by using the Ellman et al's quick colorimetric method (Biochem. Pharmacol., 7, 88, 1961) and it was expressed as enzymatic inhibition percentage.

mice = assay: electroencephalographic activity (cortical electrodes); assay type: in vivo, SWISS mice
[2] = effect on the succinylcholine curarization duration (corneal reflex); assay type: in vivo; conditions: i.v. administration of 0.6 mg/kg, rabbit; compared with physostigmine
mouse = assay: spontaneous motility (Dews' method modified according to Carminati); assay type: in vivo, mouse (SWISS strain); conditions: dose of 0.6 mg/kg/os
Text: The Dews' method was utilized, as modified according to Carminati (Arch. Int. Pharmacodyn. et Thér. 181, 68,1969).

[3] = antagonist activity against the stimulating effect of an anticholinergic substance (scopolamine); assay type: in vivo, mice SWISS; conditions: dose of 0.4 mg/kg/os; scopolamine 1mg/kg s.c.
Description: As the central anticholinergic stimulating agent the scopolamine was used subcutaneously injected to groups of 10 mice SWISS ([…]) at the dose of 1mg/kg.
At this dose the substance under question caused in all the animals a marked increase (80-100%) of the spontaneous motility, evaluated according to the above described method .

[4] = i.v. dose of 0.1 mg, anesthetized rabbit, artificial respiration; cited from earlier work

CN1CC[C@@]2(C)c3cc(OC(=O)N[C@H]4CCCCNC4=O)ccc3N(C)[C@@H]12 [MGT1, eseroline R-caprolactam carbamate]
inhibitory activity of the acetylcholinesterase [1]: evident dose dipendent and reversible inhibitory activity
electroencephalographic variations (mice; 5 mg/kg/os, in the course of the successive 30 minutes): amplitude increase and a slowing down electroencephalographic rate
anticholinesterase effect with respect to the succinylcholine curarizing action [2]: the same anticholinesterase effect

CN1CC[C@@]2(C)c3cc(OC(=O)N[C@H]4C(O)O[C@H](CO)[C@@H](O)[C@@H]4O)ccc3N(C)[C@@H]12 (stereo partly drawn) [MGT4, eseroline N-D-glucosamine carbamate]
inhibitory activity of the acetylcholinesterase [1]: evident dose dipendent and reversible inhibitory activity

CNC(=O)Oc1ccc2c(c1)[C@]1(C)CCN(C)[C@@H]1N2C [Physostigmine, reference compound]
reduction of spontaneous motility (mouse): the same effect
antagonism of the excitatory effect of scopolamine [3]: the same antagonist effect
electroencephalographic variations (mice; oral administration of 0.6 mg/kg): qualitatively the same
duration of the succinyl choline curaric action [4]: protracts considerably the duration of the succinyl choline curaric action

Source: patent publication EP0550007A2, “Eseroline derivatives having anticholinesterase activity, a process for their preparation and pharmaceutical compositions containing them” (priority 1991, dated 1993)
